Patent US20030207813A1, “Retroviral protease inhibitor combinations” (priority 1995, published 2003)
Some results were stated once for a whole list of compounds, not compound by compound.

Tested on: Clinical and laboratory HIV-1 strains
Experiment: In vitro selection of drug resistant HIV-1 variants by passage in presence of inhibitor
Type: cell-based
Settings: variants selected in T cell lines or PBMCs with increasing drug concentrations

Row | Structure (SMILES) | EC50 of resistant variants relative to control virus passaged without inhibitor
1 | CC(C)CN(C[C@@H](O)[C@H](Cc1ccccc1)NC(=O)[C@H](CC(N)=O)NC(=O)c1ccc2ccccc2n1)C(=O)NC(C)(C)C (relative stereo) [Example 1, [1S-[1R*(R*),2S*]]-N^1-[3-[[[(1,1-dimethylethyl)amino]carbonyl])2-methylpropyl)amino]-2-hydroxy-1-(phenylmethyl)propyl]-2-[(2-quinolinylcarbonyl)amino]-butanediamide] | at least 10 fold
2 | CNCC(=O)N[C@H](C(=O)N[C@@H](Cc1ccccc1)[C@H](O)CN(CCC(C)C)C(=O)NC(C)(C)C)C(C)(C)C [Example 2, (2R,3S)-3-(N-methylaminoacetyl-L-tert-butylglycinyl)amino-1-(N-isoamyl-N-(tert-butylcarbamoyl))amino-4-phenyl-2-butanol] | at least 10 fold
